Reference: PubChem BioAssay AID743121 (NCATS, 2013)
Screen: 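Knock-downs that sensitise breast cancer cells to camptothecin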 (primary screen). System: MDA-MB-231 cells, a human breast cancer line. Reagents: single siRNA against human genes, 20 nM siRNA (0.8 pmol per well). Timing: 120 h (drug added 48 h after transfection, read 72 h later). Treatment: camptothecin 20 nM (about EC30) for 72 h; vehicle 0.1% DMSO in parallel plates. Measured: 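Cell viability by ATP luminescence (CellTiter-Glo) as % of non-targeting siRNA wells, and the log2 ratio of viability without drug over viability with camptothecin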. Reading the numbers: log2 vehicle/camptothecin viability: higher = stronger sensitisation to camptothecin; viability with camptothecin: higher = more viable cells. Call rule: 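Each gene scored by redundant siRNA activity (RSA) over its individual siRNA ratios; a gene is called active at p < 0.001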.
The whole screen tested about 26,000 reagents; shown is a random part of them. In the full data, 167 (0.63%) got an active call. 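Calls are per gene from RSA p-values that are not deposited; an individual active-marked siRNA can sensitise only weakly.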 A number with no mark means an inactive call. The numbers tell different reagents against one gene apart. Not all columns of the deposit are shown.

| target gene | siRNA no. | log2 vehicle/camptothecin viability | viability with camptothecin (% of control) |
| --- | --- | --- | --- |
| TBC1D30 (GeneID 23329) | 1 | 0.286 | 46 |
| TBC1D30 (GeneID 23329) | 2 | -0.249 | 85.6 |
| TBC1D30 (GeneID 23329) | 3 | -0.193 | 95.2 |
| TBC1D30 (GeneID 23329) | 4 | -0.492 | 19.1 |
| NFATC2 (GeneID 4773) | 1 | -0.0957 | 93.5 |
| NFATC2 (GeneID 4773) | 2 | -0.269 | 69.6 |
| NFATC2 (GeneID 4773) | 3 | 0.259 | 71.6 |
| NFATC2 (GeneID 4773) | 4 | 0.111 | 74.2 |
| P2RX1 (GeneID 5023) | 1 | 0.467 | 31 |
| P2RX1 (GeneID 5023) | 2 | -0.472 | 91.3 |
| P2RX1 (GeneID 5023) | 3 | -0.19 | 85.2 |
| SIRPG (GeneID 55423) | 1 | -0.199 | 113 |
| SIRPG (GeneID 55423) | 2 | -0.146 | 60.8 |
| SIRPG (GeneID 55423) | 3 | -0.169 | 50.4 |
| PNRC1 (GeneID 10957) | 1 | -0.275 | 125 |
| PNRC1 (GeneID 10957) | 2 | -0.186 | 97.5 |
| PNRC1 (GeneID 10957) | 3 | -0.408 | 66.3 |
| PNRC1 (GeneID 10957) | 4 | -0.352 | 74.2 |
| CXCR1 (GeneID 3577) | 1 | -0.0086 | 78 |
| CXCR1 (GeneID 3577) | 2 | -0.365 | 103 |
| CXCR1 (GeneID 3577) | 3 | -0.303 | 102 |
| CXCR1 (GeneID 3577) | 4 | -0.276 | 47.1 |
| POU3F4 (GeneID 5456) | 1 | -0.119 | 107 |
| POU3F4 (GeneID 5456) | 2 | -0.219 | 102 |
| POU3F4 (GeneID 5456) | 3 | 0.111 | 55 |
| POU3F4 (GeneID 5456) | 4 | 0.296 | 79.3 |
| GH1 (GeneID 2688) | 1 | -0.0364 | 43.9 |
| TACR1 (GeneID 6869) | 1 | -0.231 | 51.3 |
| TACR1 (GeneID 6869) | 2 | -0.193 | 73.9 |
| TACR1 (GeneID 6869) | 3 | -0.537 | 94.7 |
| TACR1 (GeneID 6869) | 4 | 0.371 | 45.2 |
